Experimental findings from article PMC12574921 are described below.

Sequences of proteins named here, by UniProt entry; tags and fusion partners are left off. A change or cut given only in a name is not applied to a line headed by its entry.
UniProt Q9VP77: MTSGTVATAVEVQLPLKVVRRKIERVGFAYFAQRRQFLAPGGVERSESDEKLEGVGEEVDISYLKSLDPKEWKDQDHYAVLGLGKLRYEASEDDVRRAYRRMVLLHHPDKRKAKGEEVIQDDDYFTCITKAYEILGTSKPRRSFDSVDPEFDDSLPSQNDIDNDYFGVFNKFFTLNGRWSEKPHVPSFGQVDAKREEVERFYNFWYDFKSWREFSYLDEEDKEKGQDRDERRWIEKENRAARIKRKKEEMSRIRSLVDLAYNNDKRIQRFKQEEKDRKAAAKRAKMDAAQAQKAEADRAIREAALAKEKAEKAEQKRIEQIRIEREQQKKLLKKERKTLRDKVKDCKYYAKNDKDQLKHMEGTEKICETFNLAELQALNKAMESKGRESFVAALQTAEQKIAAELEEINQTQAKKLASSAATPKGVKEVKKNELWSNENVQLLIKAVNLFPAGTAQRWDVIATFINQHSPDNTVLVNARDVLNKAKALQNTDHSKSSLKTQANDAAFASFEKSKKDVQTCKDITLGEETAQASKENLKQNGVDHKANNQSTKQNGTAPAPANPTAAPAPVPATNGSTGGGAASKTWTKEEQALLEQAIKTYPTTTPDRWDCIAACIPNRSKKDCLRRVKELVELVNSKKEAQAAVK
UniProt Q9VSI1: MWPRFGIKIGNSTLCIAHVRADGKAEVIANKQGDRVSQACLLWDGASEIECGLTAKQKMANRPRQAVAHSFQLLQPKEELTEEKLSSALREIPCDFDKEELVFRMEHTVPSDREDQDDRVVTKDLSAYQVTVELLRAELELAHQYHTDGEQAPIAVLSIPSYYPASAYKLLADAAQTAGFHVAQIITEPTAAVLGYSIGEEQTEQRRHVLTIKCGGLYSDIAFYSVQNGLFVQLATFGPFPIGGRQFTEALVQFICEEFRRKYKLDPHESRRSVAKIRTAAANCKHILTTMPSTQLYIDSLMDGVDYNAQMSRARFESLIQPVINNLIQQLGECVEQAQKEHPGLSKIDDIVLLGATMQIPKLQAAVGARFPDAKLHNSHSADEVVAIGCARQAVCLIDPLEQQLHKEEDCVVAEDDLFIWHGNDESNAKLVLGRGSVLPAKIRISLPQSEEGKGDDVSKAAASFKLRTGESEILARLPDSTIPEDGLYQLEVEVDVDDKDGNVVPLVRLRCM
UniProt P11147: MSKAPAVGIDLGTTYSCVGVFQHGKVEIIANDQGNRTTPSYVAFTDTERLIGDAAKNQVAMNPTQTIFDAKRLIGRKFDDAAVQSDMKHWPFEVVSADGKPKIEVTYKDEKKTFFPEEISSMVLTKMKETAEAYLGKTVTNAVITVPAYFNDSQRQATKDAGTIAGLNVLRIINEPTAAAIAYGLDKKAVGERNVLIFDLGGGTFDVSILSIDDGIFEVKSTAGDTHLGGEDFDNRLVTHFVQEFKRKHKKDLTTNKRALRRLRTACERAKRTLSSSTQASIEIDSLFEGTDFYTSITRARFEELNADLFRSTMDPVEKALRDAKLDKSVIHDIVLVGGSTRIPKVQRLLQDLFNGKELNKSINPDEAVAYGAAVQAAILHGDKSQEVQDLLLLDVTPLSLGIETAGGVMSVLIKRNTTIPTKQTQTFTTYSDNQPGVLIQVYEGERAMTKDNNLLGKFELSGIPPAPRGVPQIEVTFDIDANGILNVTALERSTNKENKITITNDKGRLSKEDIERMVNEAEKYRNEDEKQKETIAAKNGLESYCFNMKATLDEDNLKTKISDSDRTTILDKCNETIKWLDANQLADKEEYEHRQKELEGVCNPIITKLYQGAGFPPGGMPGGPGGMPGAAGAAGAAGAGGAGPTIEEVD
UniProt P19109: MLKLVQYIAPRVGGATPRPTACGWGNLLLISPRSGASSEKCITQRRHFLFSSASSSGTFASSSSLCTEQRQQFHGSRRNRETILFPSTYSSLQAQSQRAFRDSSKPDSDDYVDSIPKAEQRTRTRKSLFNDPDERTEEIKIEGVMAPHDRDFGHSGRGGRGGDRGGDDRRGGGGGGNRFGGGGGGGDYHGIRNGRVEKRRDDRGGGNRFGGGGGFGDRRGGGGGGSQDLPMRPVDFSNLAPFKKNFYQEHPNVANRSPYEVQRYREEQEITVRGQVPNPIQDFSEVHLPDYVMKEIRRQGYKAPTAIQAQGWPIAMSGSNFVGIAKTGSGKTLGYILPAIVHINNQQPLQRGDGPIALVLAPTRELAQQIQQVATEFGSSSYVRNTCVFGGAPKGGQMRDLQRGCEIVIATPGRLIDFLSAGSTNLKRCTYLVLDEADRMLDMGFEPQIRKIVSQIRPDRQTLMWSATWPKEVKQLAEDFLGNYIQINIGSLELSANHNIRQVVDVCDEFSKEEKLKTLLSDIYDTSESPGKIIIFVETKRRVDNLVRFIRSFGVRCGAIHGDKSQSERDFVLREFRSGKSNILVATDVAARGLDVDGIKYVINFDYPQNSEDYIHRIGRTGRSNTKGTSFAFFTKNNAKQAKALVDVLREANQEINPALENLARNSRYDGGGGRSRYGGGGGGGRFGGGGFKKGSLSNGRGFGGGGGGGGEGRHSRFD
UniProt Q9V426: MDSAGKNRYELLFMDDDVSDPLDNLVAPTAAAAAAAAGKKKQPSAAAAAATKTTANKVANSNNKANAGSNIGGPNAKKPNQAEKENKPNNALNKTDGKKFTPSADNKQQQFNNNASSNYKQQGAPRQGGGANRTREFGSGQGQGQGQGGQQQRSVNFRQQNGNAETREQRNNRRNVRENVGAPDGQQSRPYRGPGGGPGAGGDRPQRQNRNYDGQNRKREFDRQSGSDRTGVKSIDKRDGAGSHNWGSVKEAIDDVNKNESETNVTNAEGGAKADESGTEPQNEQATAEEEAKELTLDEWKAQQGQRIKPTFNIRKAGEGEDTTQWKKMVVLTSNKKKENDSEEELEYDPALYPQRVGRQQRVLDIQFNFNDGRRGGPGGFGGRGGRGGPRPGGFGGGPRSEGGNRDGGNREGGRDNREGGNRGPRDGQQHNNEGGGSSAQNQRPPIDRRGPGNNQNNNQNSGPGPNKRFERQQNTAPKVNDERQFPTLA
UniProt Q9VUH8: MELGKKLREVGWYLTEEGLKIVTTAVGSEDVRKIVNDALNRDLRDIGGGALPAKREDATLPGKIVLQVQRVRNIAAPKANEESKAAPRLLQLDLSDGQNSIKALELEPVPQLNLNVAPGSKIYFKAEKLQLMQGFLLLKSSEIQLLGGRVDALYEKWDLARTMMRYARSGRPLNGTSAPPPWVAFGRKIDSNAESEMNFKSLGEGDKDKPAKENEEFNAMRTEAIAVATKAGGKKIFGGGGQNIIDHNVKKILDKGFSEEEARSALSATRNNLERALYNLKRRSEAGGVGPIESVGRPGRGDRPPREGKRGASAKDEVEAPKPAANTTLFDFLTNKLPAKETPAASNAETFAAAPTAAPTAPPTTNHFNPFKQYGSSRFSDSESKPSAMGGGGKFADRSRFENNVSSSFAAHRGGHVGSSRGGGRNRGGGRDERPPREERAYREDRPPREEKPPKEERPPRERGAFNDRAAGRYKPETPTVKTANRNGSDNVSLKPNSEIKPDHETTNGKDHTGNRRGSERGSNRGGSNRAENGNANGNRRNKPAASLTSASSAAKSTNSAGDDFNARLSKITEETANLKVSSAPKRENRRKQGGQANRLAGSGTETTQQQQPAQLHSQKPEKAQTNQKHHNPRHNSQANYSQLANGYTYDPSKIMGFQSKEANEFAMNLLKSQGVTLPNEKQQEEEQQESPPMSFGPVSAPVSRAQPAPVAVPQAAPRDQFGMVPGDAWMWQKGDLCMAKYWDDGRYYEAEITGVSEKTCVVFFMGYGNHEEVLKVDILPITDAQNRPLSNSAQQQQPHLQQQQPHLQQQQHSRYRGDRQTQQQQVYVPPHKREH

Experiment [1] has as its target GFP-Zrf1 (Drosophila) (UniProt Q9VP77). Description: co-IP; Zrf1 immunoprecipitate blotted with antibodies against endogenous RISC components.
Experiment [2] has the same target. Nature of the experiment: co-IP; reciprocal: S2R+ cells with GFP-Zrf1 and C-terminal-3xHA-tagged RISC components.
Experiment [3] deals with GFP-CG7182 (Drosophila) (UniProt Q9VSI1). Nature of the experiment: co-IP; S2R+ cells transfected with Zrf1-3xHA and N-terminal-GFP-tagged candidates; immunoprecipitation with anti-GFP, immunoblot with anti-HA. In general terms: Immunoblotting shows a protein as a band on a membrane.
Experiment [4] addresses T1, GFP-mod (Drosophila) (UniProt P13469).
T1 sequence: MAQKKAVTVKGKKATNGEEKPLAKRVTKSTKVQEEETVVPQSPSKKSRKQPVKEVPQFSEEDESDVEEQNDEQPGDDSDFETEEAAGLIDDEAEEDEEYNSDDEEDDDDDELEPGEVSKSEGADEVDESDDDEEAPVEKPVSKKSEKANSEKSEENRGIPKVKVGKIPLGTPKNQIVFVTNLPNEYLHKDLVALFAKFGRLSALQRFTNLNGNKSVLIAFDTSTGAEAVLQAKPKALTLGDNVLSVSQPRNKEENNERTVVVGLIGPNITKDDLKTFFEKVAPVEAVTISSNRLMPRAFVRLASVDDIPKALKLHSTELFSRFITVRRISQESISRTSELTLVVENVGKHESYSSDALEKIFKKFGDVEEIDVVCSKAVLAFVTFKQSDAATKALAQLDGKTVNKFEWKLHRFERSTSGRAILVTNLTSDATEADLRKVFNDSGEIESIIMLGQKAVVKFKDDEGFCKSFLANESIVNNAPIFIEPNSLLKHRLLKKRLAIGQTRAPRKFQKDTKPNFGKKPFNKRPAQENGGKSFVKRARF
The experiment is described as above.

Experiment [5] addresses T2, GFP-128up (Drosophila) (UniProt P32234).
T2 sequence: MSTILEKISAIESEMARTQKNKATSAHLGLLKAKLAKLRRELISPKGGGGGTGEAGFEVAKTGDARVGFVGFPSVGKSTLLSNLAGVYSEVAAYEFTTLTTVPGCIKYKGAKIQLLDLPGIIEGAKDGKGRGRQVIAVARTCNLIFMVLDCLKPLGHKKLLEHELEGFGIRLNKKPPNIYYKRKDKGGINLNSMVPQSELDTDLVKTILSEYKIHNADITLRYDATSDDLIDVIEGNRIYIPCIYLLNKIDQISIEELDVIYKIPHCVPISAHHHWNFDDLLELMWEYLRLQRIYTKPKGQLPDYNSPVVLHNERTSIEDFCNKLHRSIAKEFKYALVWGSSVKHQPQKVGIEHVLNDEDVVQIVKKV
The description is as above.

Experiment [6] has as its target GFP-Hsc70-4 (Drosophila) (UniProt P11147). Described as above.
The target of experiment [7] is GFP-FDY (Drosophila). Described as above.
The target of experiment [8] is GFP-Rm62 (Drosophila) (UniProt P19109). The experiment is described as above.
For experiment [9], the target named is T3, GFP-CG8635 (Drosophila) (UniProt Q7JWR9).
T3 sequence: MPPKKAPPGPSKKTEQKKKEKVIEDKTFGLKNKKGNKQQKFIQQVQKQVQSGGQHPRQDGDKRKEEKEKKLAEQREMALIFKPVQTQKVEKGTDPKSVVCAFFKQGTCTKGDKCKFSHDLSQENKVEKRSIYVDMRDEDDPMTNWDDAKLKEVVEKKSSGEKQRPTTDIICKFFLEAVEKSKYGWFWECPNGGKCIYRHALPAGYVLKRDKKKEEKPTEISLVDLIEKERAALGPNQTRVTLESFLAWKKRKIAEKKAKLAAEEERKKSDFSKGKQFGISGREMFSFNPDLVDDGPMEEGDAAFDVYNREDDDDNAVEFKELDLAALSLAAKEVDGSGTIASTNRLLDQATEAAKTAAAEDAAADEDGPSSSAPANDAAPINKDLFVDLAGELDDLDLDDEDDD
The description is as above.

In experiment [10] the target is T4, GFP-penguin (Drosophila) (UniProt O61345).
T4 sequence: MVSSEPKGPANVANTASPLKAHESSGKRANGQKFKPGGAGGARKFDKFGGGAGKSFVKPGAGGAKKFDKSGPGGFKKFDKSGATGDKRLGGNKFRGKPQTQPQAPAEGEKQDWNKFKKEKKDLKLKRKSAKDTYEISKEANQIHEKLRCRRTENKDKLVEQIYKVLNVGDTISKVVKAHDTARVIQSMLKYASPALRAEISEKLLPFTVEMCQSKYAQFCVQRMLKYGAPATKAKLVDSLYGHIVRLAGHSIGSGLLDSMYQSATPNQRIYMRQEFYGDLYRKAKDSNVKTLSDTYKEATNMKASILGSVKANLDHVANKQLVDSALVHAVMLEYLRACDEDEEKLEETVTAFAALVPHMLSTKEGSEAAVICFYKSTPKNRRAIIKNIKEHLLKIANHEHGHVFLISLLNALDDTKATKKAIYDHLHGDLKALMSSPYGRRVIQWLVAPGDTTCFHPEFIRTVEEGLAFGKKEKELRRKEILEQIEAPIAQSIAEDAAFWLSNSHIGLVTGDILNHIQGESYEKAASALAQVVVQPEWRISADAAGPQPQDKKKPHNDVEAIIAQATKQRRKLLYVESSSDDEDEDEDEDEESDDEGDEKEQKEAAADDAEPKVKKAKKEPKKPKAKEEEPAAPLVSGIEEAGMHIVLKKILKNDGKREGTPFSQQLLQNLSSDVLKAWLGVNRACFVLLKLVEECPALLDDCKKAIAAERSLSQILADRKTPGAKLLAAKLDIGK
The description is as above.

No constants are given. Whether binding was seen depends on the method and setting. Binding seen in cells or lysates may run through a third protein. Binding calls can cover weak binding; strength is not graded here. For some assays here: Tags and fused reporters may be left off the sequences shown.

With Vig (endogenous) (from UniProt Q9V426), the binding entry in experiment [1] is “binds”.

As to Rm62-3xHA (from UniProt P19109 1-719), in experiment [2], the binding entry is recorded as “binds”.

Consider “Rm62 (endogenous) (from UniProt P19109 1-719)”, for which the binding entry in experiment [1] is reported as “binds”.

In the case of “Tdrd3 (endogenous) (from UniProt Q9VUH8)”, the binding entry in [1] is listed as “binds”.

As to Zrf1-3xHA (from UniProt Q9VP77), the binding entry in experiment [3], in experiment [4], in experiment [5], in experiment [6], in experiment [7] and in experiment [8] was “binds” throughout. Also, the binding entry in experiment [9] and in experiment [10] was “binds” each time.

B1: AGO2-3xHA (protein, UniProt Q9VUQ5 1-1214)
chain: MGKKDKNKKGGQDSAAAPQPQQQQKQQQQRQQQPQQLQQPQQLQQPQQLQQPQQQQQQQPHQQQQQSSRQQPSTSSGGSRASGFQQGGQQQKSQDAEGWTAQKKQGKQQVQGWTKQGQQGGHQQGRQGQDGGYQQRPPGQQQGGHQQGRQGQEGGYQQRPPGQQQGGHQQGRQGQEGGYQQRPSGQQQGGHQQGRQGQEGGYQQRPPGQQQGGHQQGRQGQEGGYQQRPSGQQQGGHQQGRQGQEGGYQQRPPGQQQGGHQQGRQGQEGGYQQRPPGQQQGGHEQGRQGQEGGYQQRPSGQQQGGHQQGRQGQEGGYQQRPSGQQQGGHQQGRQGQEGGYQQRPSGQQQGGHQQGRQGQEGGYQQRPPGQQPNQTQSQGQYQSRGPPQQQQAAPLPLPPQPAGSIKRGTIGKPGQVGINYLDLDLSKMPSVAYHYDVKIMPERPKKFYRQAFEQFRVDQLGGAVLAYDGKASCYSVDKLPLNSQNPEVTVTDRNGRTLRYTIEIKETGDSTIDLKSLTTYMNDRIFDKPMRAMQCVEVVLASPCHNKAIRVGRSFFKMSDPNNRHELDDGYEALVGLYQAFMLGDRPFLNVDISHKSFPISMPMIEYLERFSLKAKINNTTNLDYSRRFLEPFLRGINVVYTPPQSFQSAPRVYRVNGLSRAPASSETFEHDGKKVTIASYFHSRNYPLKFPQLHCLNVGSSIKSILLPIELCSIEEGQALNRKDGATQVANMIKYAATSTNVRKRKIMNLLQYFQHNLDPTISRFGIRIANDFIVVSTRVLSPPQVEYHSKRFTMVKNGSWRMDGMKFLEPKPKAHKCAVLYCDPRSGRKMNYTQLNDFGNLIISQGKAVNISLDSDVTYRPFTDDERSLDTIFADLKRSQHDLAIVIIPQFRISYDTIKQKAELQHGILTQCIKQFTVERKCNNQTIGNILLKINSKLNGINHKIKDDPRLPMMKNTMYIGADVTHPSPDQREIPSVVGVAASHDPYGASYNMQYRLQRGALEEIEDMFSITLEHLRVYKEYRNAYPDHIIYYRDGVSDGQFPKIKNEELRCIKQACDKVGCKPKICCVIVVKRHHTRFFPSGDVTTSNKFNNVDPGTVVDRTIVHPNEMQFFMVSHQAIQGTAKPTRYNVIENTGNLDIDLLQQLTYNLCHMFPRCNRSVSYPAPAYLAHLVAARGRVYLTGTNRFLDLKKEYAKRTIVPEFMKKNPMYFV
As for B1, the binding entry in experiment [2] is “binds”.

B2: AGO2 (endogenous) (protein, UniProt Q9VUQ5 1-1214)
chain: MGKKDKNKKGGQDSAAAPQPQQQQKQQQQRQQQPQQLQQPQQLQQPQQLQQPQQQQQQQPHQQQQQSSRQQPSTSSGGSRASGFQQGGQQQKSQDAEGWTAQKKQGKQQVQGWTKQGQQGGHQQGRQGQDGGYQQRPPGQQQGGHQQGRQGQEGGYQQRPPGQQQGGHQQGRQGQEGGYQQRPSGQQQGGHQQGRQGQEGGYQQRPPGQQQGGHQQGRQGQEGGYQQRPSGQQQGGHQQGRQGQEGGYQQRPPGQQQGGHQQGRQGQEGGYQQRPPGQQQGGHEQGRQGQEGGYQQRPSGQQQGGHQQGRQGQEGGYQQRPSGQQQGGHQQGRQGQEGGYQQRPSGQQQGGHQQGRQGQEGGYQQRPPGQQPNQTQSQGQYQSRGPPQQQQAAPLPLPPQPAGSIKRGTIGKPGQVGINYLDLDLSKMPSVAYHYDVKIMPERPKKFYRQAFEQFRVDQLGGAVLAYDGKASCYSVDKLPLNSQNPEVTVTDRNGRTLRYTIEIKETGDSTIDLKSLTTYMNDRIFDKPMRAMQCVEVVLASPCHNKAIRVGRSFFKMSDPNNRHELDDGYEALVGLYQAFMLGDRPFLNVDISHKSFPISMPMIEYLERFSLKAKINNTTNLDYSRRFLEPFLRGINVVYTPPQSFQSAPRVYRVNGLSRAPASSETFEHDGKKVTIASYFHSRNYPLKFPQLHCLNVGSSIKSILLPIELCSIEEGQALNRKDGATQVANMIKYAATSTNVRKRKIMNLLQYFQHNLDPTISRFGIRIANDFIVVSTRVLSPPQVEYHSKRFTMVKNGSWRMDGMKFLEPKPKAHKCAVLYCDPRSGRKMNYTQLNDFGNLIISQGKAVNISLDSDVTYRPFTDDERSLDTIFADLKRSQHDLAIVIIPQFRISYDTIKQKAELQHGILTQCIKQFTVERKCNNQTIGNILLKINSKLNGINHKIKDDPRLPMMKNTMYIGADVTHPSPDQREIPSVVGVAASHDPYGASYNMQYRLQRGALEEIEDMFSITLEHLRVYKEYRNAYPDHIIYYRDGVSDGQFPKIKNEELRCIKQACDKVGCKPKICCVIVVKRHHTRFFPSGDVTTSNKFNNVDPGTVVDRTIVHPNEMQFFMVSHQAIQGTAKPTRYNVIENTGNLDIDLLQQLTYNLCHMFPRCNRSVSYPAPAYLAHLVAARGRVYLTGTNRFLDLKKEYAKRTIVPEFMKKNPMYFV
Take B2: the binding result in experiment [1] is “binds”.
